Source: PubChem BioAssay AID188 (DTP/NCI, 2004)
The mice bore no tumour; each value counts animals alive of those treated. Counts of survivors are from the toxicity check (mostly the fifth day) where no day follows; animals may have died later. Schedule codes are those of the source, read here as Q, the interval in days (D) or hours (H), X, the number of doses.

Tested on: CD2F1 mice, nontumored, toxicity/survival
Experiment: NCI In Vivo Anticancer Drug Screen. Data for tumor model Nontumored Animals (Toxicity Test) in CD2F1 (CDF1) mice

C=CN1CCCC1=O
survivor count (dose: 0.25 mg/kg/injection, schedule: Q01DX001 (iv), vehicle: saline): 10 of 10 | survivor count (dose: 0.25 mg/kg/injection, schedule: Q01DX005 (iv), vehicle: saline): 10 of 10 | survivor count (dose: 0.25 mg/kg/injection, schedule: Q04DX003 (iv), vehicle: saline): 10 of 10 | survivor count (dose: 0.5 mg/kg/injection, schedule: Q01DX001 (ip), vehicle: saline): 10 of 10 | survivor count (dose: 0.5 mg/kg/injection, schedule: Q01DX001 (iv), vehicle: saline): 10 of 10 | survivor count (dose: 0.5 mg/kg/injection, schedule: Q01DX005 (ip), vehicle: saline): 10 of 10 | survivor count (dose: 0.5 mg/kg/injection, schedule: Q01DX005 (iv), vehicle: saline): 10 of 10 | survivor count (dose: 0.5 mg/kg/injection, schedule: Q01DX009 (ip), vehicle: saline): 10 of 10 | survivor count (dose: 0.5 mg/kg/injection, schedule: Q03HX008 (ip), vehicle: saline): 10 of 10 | survivor count (dose: 0.5 mg/kg/injection, schedule: Q03HX016 (ip), vehicle: saline): 10 of 10 | survivor count (dose: 0.5 mg/kg/injection, schedule: Q03HX024 (ip), vehicle: saline): 10 of 10 | survivor count (dose: 0.5 mg/kg/injection, schedule: Q04DX003 (ip), vehicle: saline): 10 of 10 | survivor count (dose: 0.5 mg/kg/injection, schedule: Q04DX003 (iv), vehicle: saline): 10 of 10 | survivor count (dose: 0.5 mg/kg/injection, schedule: Q08DX002 (ip), vehicle: saline): 10 of 10 | survivor count (dose: 1.0 mg/kg/injection, schedule: Q01DX001 (ip), vehicle: saline): 10 of 10 | survivor count (dose: 1.0 mg/kg/injection, schedule: Q01DX001 (iv), vehicle: saline): 10 of 10 | survivor count (dose: 1.0 mg/kg/injection, schedule: Q01DX005 (ip), vehicle: saline): 10 of 10 | survivor count (dose: 1.0 mg/kg/injection, schedule: Q01DX005 (iv), vehicle: saline): 10 of 10 | survivor count (dose: 1.0 mg/kg/injection, schedule: Q01DX009 (ip), vehicle: saline): 10 of 10 | survivor count (dose: 1.0 mg/kg/injection, schedule: Q03HX008 (ip), vehicle: saline): 8 of 10 | survivor count (dose: 1.0 mg/kg/injection, schedule: Q03HX016 (ip), vehicle: saline): 8 of 10 | survivor count (dose: 1.0 mg/kg/injection, schedule: Q03HX024 (ip), vehicle: saline): 8 of 9 | survivor count (dose: 1.0 mg/kg/injection, schedule: Q04DX003 (ip), vehicle: saline): 10 of 10 | survivor count (dose: 1.0 mg/kg/injection, schedule: Q04DX003 (iv), vehicle: saline): 10 of 10 | survivor count (dose: 1.0 mg/kg/injection, schedule: Q08DX002 (ip), vehicle: saline): 9 of 10 | survivor count (dose: 2.0 mg/kg/injection, schedule: Q01DX001 (ip), vehicle: saline): 10 of 10 | survivor count (dose: 2.0 mg/kg/injection, schedule: Q01DX005 (ip), vehicle: saline): 10 of 10 | survivor count (dose: 2.0 mg/kg/injection, schedule: Q01DX009 (ip), vehicle: saline): 9 of 10 | survivor count (dose: 2.0 mg/kg/injection, schedule: Q03HX008 (ip), vehicle: saline): 0 of 10 | survivor count (dose: 2.0 mg/kg/injection, schedule: Q03HX016 (ip), vehicle: saline): 1 of 10 | survivor count (dose: 2.0 mg/kg/injection, schedule: Q03HX024 (ip), vehicle: saline): 1 of 10 | survivor count (dose: 2.0 mg/kg/injection, schedule: Q04DX003 (ip), vehicle: saline): 10 of 10 | survivor count (dose: 2.0 mg/kg/injection, schedule: Q08DX002 (ip), vehicle: saline): 10 of 10 | survivor count (dose: 1.9 grams/kg/injection, schedule: Q01DX001 (iv), vehicle: saline): 10 of 10 | survivor count (dose: 1.9 grams/kg/injection, schedule: Q01DX005 (iv), vehicle: saline): 10 of 10 | survivor count (dose: 1.9 grams/kg/injection, schedule: Q03HX008 (ip), vehicle: saline): 10 of 10 | survivor count (dose: 1.9 grams/kg/injection, schedule: Q03HX016 (ip), vehicle: saline): 10 of 10 | survivor count (dose: 1.9 grams/kg/injection, schedule: Q03HX024 (ip), vehicle: saline): 10 of 10 | survivor count (dose: 1.9 grams/kg/injection, schedule: Q04DX003 (iv), vehicle: saline): 10 of 10 | survivor count (dose: 3.8 grams/kg/injection, schedule: Q01DX001 (ip), vehicle: saline): 10 of 10 | survivor count (dose: 3.8 grams/kg/injection, schedule: Q01DX001 (iv), vehicle: saline): 10 of 10 | survivor count (dose: 3.8 grams/kg/injection, schedule: Q01DX005 (ip), vehicle: saline): 10 of 10 | survivor count (dose: 3.8 grams/kg/injection, schedule: Q01DX005 (iv), vehicle: saline): 10 of 10 | survivor count (dose: 3.8 grams/kg/injection, schedule: Q01DX009 (ip), vehicle: saline): 10 of 10 | survivor count (dose: 3.8 grams/kg/injection, schedule: Q03HX008 (ip), vehicle: saline): 10 of 10 | survivor count (dose: 3.8 grams/kg/injection, schedule: Q03HX016 (ip), vehicle: saline): 10 of 10 | survivor count (dose: 3.8 grams/kg/injection, schedule: Q03HX024 (ip), vehicle: saline): 10 of 10 | survivor count (dose: 3.8 grams/kg/injection, schedule: Q04DX003 (ip), vehicle: saline): 10 of 10 | survivor count (dose: 3.8 grams/kg/injection, schedule: Q04DX003 (iv), vehicle: saline): 10 of 10 | survivor count (dose: 3.8 grams/kg/injection, schedule: Q08DX002 (ip), vehicle: saline): 10 of 10 | survivor count (dose: 7.5 grams/kg/injection, schedule: Q01DX001 (ip), vehicle: saline): 10 of 10 | survivor count (dose: 7.5 grams/kg/injection, schedule: Q01DX001 (iv), vehicle: saline): 10 of 10 | survivor count (dose: 7.5 grams/kg/injection, schedule: Q01DX005 (ip), vehicle: saline): 10 of 10 | survivor count (dose: 7.5 grams/kg/injection, schedule: Q01DX005 (iv), vehicle: saline): 10 of 10 | survivor count (dose: 7.5 grams/kg/injection, schedule: Q01DX009 (ip), vehicle: saline): 10 of 10 | survivor count (dose: 7.5 grams/kg/injection, schedule: Q03HX008 (ip), vehicle: saline): 5 of 10 | survivor count (dose: 7.5 grams/kg/injection, schedule: Q03HX016 (ip), vehicle: saline): 9 of 10 | survivor count (dose: 7.5 grams/kg/injection, schedule: Q03HX024 (ip), vehicle: saline): 10 of 10 | survivor count (dose: 7.5 grams/kg/injection, schedule: Q04DX003 (ip), vehicle: saline): 10 of 10 | survivor count (dose: 7.5 grams/kg/injection, schedule: Q04DX003 (iv), vehicle: saline): 10 of 10 | survivor count (dose: 7.5 grams/kg/injection, schedule: Q08DX002 (ip), vehicle: saline): 10 of 10

CCNc1ncc2ccccc2c1-c1ccc(NCCCl)cc1
survivor count (dose: 1.0 mg/kg/injection, schedule: Q01DX001 (ip), vehicle: DMSO): 2 of 2 | survivor count (dose: 10.0 mg/kg/injection, schedule: Q01DX001 (ip), vehicle: DMSO): 2 of 2 | survivor count (dose: 100.0 mg/kg/injection, schedule: Q01DX001 (ip), vehicle: DMSO): 2 of 2
